Earlier results, collected in US6469022B1, “Method, compositions and kits for increasing the oral bioavailability of pharmaceutical agents” (Smith Kline Beecham, Corporation, priority 1997, dated 2002).

CC(=O)O[C@H]1C(=O)[C@@]2(C)[C@H]([C@H](OC(=O)c3ccccc3)[C@]3(O)C[C@H](OC(=O)[C@H](O)[C@@H](NC(=O)c4ccccc4)c4ccccc4)C(C)=C1C3(C)C)[C@]1(OC(C)=O)CO[C@@H]1C[C@@H]2O [paclitaxel, 5β,20-epoxy-1,2α,4,7β,10β,13α-hexa-hydroxytax-11-en-9-one 4,10-diacetate 2-benzoate 13-ester with (2R,3S)-N-benzoyl-3-phenylisoserine]
solubility in water: only slightly soluble
